These are yes or no findings as the source states them, for the method shown. Binding seen in cells or lysates may run through a third protein. Some results given as binding are weak or reduced against the parent protein; the word gives no strength.
Target: RNF8 (as used in Figures S3d and S3g; construct not shown) (UniProt O76064)
Assay: co-IP; Figure S3g; RNF8 and RAD51 with regard to S157 phosphorylation; cells and constructs not told in the text shown

The chains behind the UniProt entries cited, without tags or fusion partners.
UniProt Q06609: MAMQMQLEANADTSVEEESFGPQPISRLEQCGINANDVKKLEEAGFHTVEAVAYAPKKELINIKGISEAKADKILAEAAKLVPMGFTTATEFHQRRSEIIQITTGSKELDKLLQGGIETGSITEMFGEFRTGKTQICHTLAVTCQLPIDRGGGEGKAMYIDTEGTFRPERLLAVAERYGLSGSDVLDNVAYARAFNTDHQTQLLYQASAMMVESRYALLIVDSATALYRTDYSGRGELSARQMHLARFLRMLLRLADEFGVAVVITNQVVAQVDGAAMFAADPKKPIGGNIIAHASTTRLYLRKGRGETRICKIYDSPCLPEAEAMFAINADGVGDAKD

binding: binds
Substance: RAD51 (from UniProt Q06609 1-339)
